Source: US20200129532A1
These are yes or no findings as the source states them, for the method shown. For some of these results: In cells and extracts the contact can be indirect. Some binding calls cover weakened binding; strength is not graded here. Tags and fused reporters may be left off the sequences shown.

The chains behind the UniProt entries cited, without tags or fusion partners. Where a name states a change or a piece, a line headed by the entry shows the natural chain unless it says otherwise.
UniProt Q9H8M2: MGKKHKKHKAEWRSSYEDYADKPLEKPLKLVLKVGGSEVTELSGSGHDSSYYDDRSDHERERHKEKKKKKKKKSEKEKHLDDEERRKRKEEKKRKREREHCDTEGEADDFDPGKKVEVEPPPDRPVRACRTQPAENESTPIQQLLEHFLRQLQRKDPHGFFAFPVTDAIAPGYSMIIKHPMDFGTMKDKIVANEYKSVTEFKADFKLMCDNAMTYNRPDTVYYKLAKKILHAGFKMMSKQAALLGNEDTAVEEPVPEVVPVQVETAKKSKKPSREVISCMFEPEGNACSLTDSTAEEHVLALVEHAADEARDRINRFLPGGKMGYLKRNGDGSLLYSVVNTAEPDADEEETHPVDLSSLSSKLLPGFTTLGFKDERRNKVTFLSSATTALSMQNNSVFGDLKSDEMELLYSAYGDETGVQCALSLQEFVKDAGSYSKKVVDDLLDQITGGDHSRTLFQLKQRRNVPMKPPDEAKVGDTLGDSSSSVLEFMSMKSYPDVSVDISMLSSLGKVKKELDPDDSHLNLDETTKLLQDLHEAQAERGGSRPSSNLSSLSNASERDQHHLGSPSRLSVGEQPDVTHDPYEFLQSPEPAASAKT

What was measured:
[1] = target: T1, purified recombinant His-tagged VDR (full-length, SF9 insect cell produced) (human) (UniProt P11473); assay: in vitro interaction of purified proteins (FIG. 4D)
T1 sequence (acetylated (FIG. 5F); acetylated lysine at 91 (FIG. 5G), looked up): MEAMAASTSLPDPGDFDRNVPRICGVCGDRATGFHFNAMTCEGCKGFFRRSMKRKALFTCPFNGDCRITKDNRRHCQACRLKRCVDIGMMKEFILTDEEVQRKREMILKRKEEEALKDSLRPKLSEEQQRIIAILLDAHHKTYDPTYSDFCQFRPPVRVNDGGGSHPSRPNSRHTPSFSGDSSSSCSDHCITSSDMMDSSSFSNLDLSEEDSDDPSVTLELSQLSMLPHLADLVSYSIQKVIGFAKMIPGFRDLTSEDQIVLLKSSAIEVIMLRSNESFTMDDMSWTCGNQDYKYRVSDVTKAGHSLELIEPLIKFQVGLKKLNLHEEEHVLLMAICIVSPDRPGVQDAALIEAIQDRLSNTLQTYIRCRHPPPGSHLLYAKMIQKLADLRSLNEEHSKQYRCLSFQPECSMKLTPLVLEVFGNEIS

[2] = target: T1, purified recombinant His-tagged VDR (full-length, SF9 insect cell produced) (human); assay: in vitro interaction of purified proteins (FIGS. 4D, 5F)
[3] = target: T2, HA-tagged VDR (vitamin D receptor), wild type (human) (UniProt P11473); assay: co-immunoprecipitation, Western blot and MudPIT (title of FIGS. 4A-4L)
T2 sequence (acetylated lysine at 91 (K91Ac), looked up): T1 sequence (acetylated (FIG. 5F); acetylated lysine at 91 (FIG. 5G), looked up)

[4] = target: T2, HA-tagged VDR (vitamin D receptor), wild type (human); assay: co-immunoprecipitation from 293T cells, Western blot; interaction decreased with VDR ligand (Cal) and with iBRD9

| Substance | binding [1] | binding [2] | binding [3] | binding [4] |
| --- | --- | --- | --- | --- |
| GST-tagged bromodomain of BRD9 (from UniProt Q9H8M2 134-239) | binds | binds | – | – |
| endogenous bromodomain-containing protein 9 (BRD9) (from UniProt Q9H8M2 1-597) | – | – | binds | binds |
